For some assays here: Weaker means in comparison with the reference protein, sequence or condition of that experiment. Protein sequences can lack the tags named with them. For some assays here: Construct, isoform or probe ends are uncertain for at least one entry. For some assays here: At least one verdict was read from the data and is not stated in words by the source.
What was measured:
ZBP1 Zα1 (Homo sapiens) = target: T1, ZBP1 Zα1 (Homo sapiens) (UniProt Q9H171); assay: NMR; settings: 20 mM NaPi pH 6.4, 100 mM KCl, 1 mM DTT, 0.5 mM EDTA (LiCl replaces KCl where noted); competition 40 nM); recombinant protein; residues 1-70; protein details: N-terminal 6xHis, thrombin site, T7 tag
T1 sequence (looked up): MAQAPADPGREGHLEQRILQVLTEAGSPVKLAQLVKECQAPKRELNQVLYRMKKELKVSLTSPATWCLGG

ZBP1 Zα2 (Homo sapiens) = target: T2, ZBP1 Zα2 (Homo sapiens) (UniProt Q9H171); assay: NMR; settings: LLPS; 20 mM NaPi pH 6.4, 100 mM KCl, 1 mM DTT, 0.5 mM EDTA (LiCl replaces KCl where noted); competition 40 nM); recombinant protein; residues 103-166; protein details: N-terminal 6xHis, thrombin site, T7 tag
T2 sequence (looked up): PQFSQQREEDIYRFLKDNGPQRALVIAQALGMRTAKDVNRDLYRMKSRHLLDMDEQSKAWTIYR

| Sequence | binding result (ZBP1 Zα1 (Homo sapiens)) | binding result (ZBP1 Zα2 (Homo sapiens)) |
| --- | --- | --- |
| CCGACCGCCCGACCG [ALU-mutRNA] | binds more weakly | – |
| GGGAGGGCGGGAGGG [ALU-GQRNA] | – | binds |
